Measured values: the supplement of paper PMC3334620
The full ranking holds about 33,000 sequences; the median of “E-score (-0.5 to 0.5)” is about -0.015, and the highest 2% start at about 0.3. This is one part of the list.

Biological target: T1, Abf1 (UniProt P14164)
T1 sequence: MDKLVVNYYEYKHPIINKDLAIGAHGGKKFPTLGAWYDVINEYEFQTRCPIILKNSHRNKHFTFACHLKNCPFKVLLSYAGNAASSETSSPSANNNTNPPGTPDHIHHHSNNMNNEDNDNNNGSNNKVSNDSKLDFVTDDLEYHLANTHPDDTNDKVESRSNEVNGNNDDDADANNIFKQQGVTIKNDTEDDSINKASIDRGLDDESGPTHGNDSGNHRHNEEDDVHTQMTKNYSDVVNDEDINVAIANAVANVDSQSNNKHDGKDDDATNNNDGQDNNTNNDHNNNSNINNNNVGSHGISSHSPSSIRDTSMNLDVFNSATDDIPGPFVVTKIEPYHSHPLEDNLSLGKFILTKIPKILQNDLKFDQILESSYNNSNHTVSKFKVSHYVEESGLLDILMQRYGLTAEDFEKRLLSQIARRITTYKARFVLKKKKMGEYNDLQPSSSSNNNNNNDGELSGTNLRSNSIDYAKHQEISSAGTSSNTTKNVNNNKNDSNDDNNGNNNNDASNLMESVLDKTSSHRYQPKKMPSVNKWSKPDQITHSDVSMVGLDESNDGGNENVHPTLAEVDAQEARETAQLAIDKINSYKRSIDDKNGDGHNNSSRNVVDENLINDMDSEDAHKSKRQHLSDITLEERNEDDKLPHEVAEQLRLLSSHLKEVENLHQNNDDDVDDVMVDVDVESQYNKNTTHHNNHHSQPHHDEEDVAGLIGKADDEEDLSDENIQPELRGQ
Assay: PBM E-score (8-mer binding enrichment) (E-score (-0.5 to 0.5)); higher = stronger / more preferred TF binding
Conditions: protein concentration: 200 nM; construct: GST-full length
How it was run: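 PURExpress in vitro transcription/translation supplied GST-tagged yeast transcription factors, either full-length or DNA-binding domain. Applied at about 100-200 nM to universal all-10-mer Agilent arrays double-stranded by primer extension, the bound protein was detected with fluorescent anti-GST. E-scores, modified Wilcoxon-Mann-Whitney statistics, were given by the Universal PBM Analysis Suite to ungapped eight-base words pooled with their reverse complements after masliner normalisation.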

Sequence	PBM E-score
AAGACCCA	-0.292
CCTTCCCA	-0.146
AGTGGGAT	-0.0635
TAATCTAA	0.0149
GATACGGC	0.199
CCAGAAGC	-0.303
AAATAACA	0.0959
GCACACGC	-0.209
CTAATACA	0.0732
CAGATCAA	-0.161
CCATCAAA	-0.166
ATAGCCCC	-0.202
GCCAAGCA	-0.129
AAGCCTTC	-0.138
CTGGACTC	-0.0544
ACGTCAGA	0.025
CGGTGAAG	0.00725
GTATCATA	0.259
AGAAATTG	0.103
CCATCTCA	-0.0428
CAAGTCGC	-0.00386
ACGAGCAC	0.201
ACCTTCAA	0.0283
ATACGCTC	0.00441
AATTTTAG	0.134

Sequence	PBM E-score
AGTGCGGC	-0.0349
CCATCGCA	-0.0576
GGCCTATA	-0.251
CTACTCTC	-0.145
CCTTTCGC	0.00468
CGTTGGTC	-0.154
CGCCCGCG	-0.0644
CGGGTACA	-0.202
ACTCCTAT	0.0863
CACCGTAG	0.0588
TCCAGCGA	-0.0303
AACAACTA	0.0318
GCTAGCCA	-0.131
CACGACTA	0.156
CTCTATGC	-0.194
GTTACCGA	0.0226
TAGAACAA	-0.0912
CACGGGCC	0.0145
CGAGGAGC	-0.0167
GCAACTAC	-0.0516
CACAAACG	0.0262
CCGTGGAC	0.0198
CGGATTAA	-0.0169
CGCGTATA	-0.0856
GTCCGAAC	-0.0605

Sequence	PBM E-score
AGGGGCAC	-0.299
ATCTAGCG	-0.101
CCTTTGGC	-0.128
CACTAGAA	-0.00226
CGAATTTC	0.0635
CACCTCCG	0.00872
CGGGATAA	0.0608
AGTTCAGG	-0.0767
AGTGGACA	0.0861
ATAGCATG	0.0758
GGATAAAA	0.158
AGACACAC	-0.191
CCGGCGGC	-0.194
CACGACAC	0.296
CCACAAGA	-0.0548
AGGTGCGC	-0.0151
CGAACCCC	-0.259
ATGTTGTC	0.102
GAATTCTA	0.162
GTACTCCA	0.0416
GAAGTTCC	-0.114
GCGACAAC	0.191
AAGTAACC	-0.0803
CTGAACCC	-0.0887
CCAACGAA	0.112

Sequence	PBM E-score
CTATAAAA	0.106
ATCGTATG	0.302
GCCTAATA	0.0617
ATGCGTCA	0.174
TAGACCGA	-0.0989
CCTCATTC	-0.114
AACGTCAT	0.217
AGTTAGGC	-0.0539
ACGTCCGG	-0.131
AGCATCAA	0.00606
ACGCTGAA	0.0402
GGGCTTTA	-0.313
CACTTGTC	0.122
AGTCCCGA	-0.196
CTCGCTGC	0.0747
TAACTCCA	0.0969
GCGCCTCC	-0.225
CTAGCCGA	-0.209
GTCCAACA	0.025
CTTATGGC	0.034
AAGACCGT	0.0533
CTGGCACA	0.00341
ATTTTCGC	0.123
ACCTAAGG	-0.0147
ATGGGATG	-0.152

Sequence	PBM E-score
GCCAGGCC	-0.0562
AACTCAAC	0.00323
GTCATCAA	0.31
GCGTAGTA	-0.0958
AATAGCAC	-0.247
CAAATGAC	0.144
GACCCGGC	-0.208
GCGGCACA	0.112
AAGCGAGA	-0.0593
ACCTCGGA	0.032
TCTACAGA	-0.175
AGCAAACG	-0.163
ATGAGCGA	0.0981
GTTTAGCA	0.0886
ATTTAACC	-0.18
CACGTTGA	0.14
GGTTCGGA	-0.0766
CCAAGAGA	-0.0641
CTCCGGGA	-0.219
AGATGCGA	0.0196
CATCTGCG	-0.0622
CCCTCTCC	-0.362
ATATGTGA	0.0846
CCGACAAG	-0.118
CCAGTGGA	0.0179

Sequence	PBM E-score
CGTTTTGA	0.182
AGTTGAAA	-0.115
ATAGTAGG	0.0397
AGGTTCAA	-0.0587
CTTCACAC	0.23
TGGCACAA	-0.0301
ATAACTGA	0.0287
GTTGAAAC	0.0693
GGGCGGAC	-0.195
TACCTAAA	-0.0501
CTGTGCGC	-0.0791
CCATTAAC	0.127
AGACTCTC	-0.195
GAGTAATA	0.18
ACATTACT	-0.0384
CGAGATTA	0.215
AAGAAGCC	-0.011
TCGTGGAA	0.336
AATGGCGA	0.185
ACACCGTG	0.0786
CCGGTTGC	0.13
GAGAGCGA	-0.0638
AATTCGTA	0.307
CCTTTGCC	-0.0466
CACACATG	-0.151

Sequence	PBM E-score
GTGCTTTA	0.142
ACATTAGA	0.0369
CCTAATAG	0.0821
CGTTGCAG	0.205
GGTGTGAA	0.144
CCAACCCG	-0.194
GGCTTGAA	0.0631
CAAGATGG	-0.203
CCACTGCA	0.0149
GGTTTTAA	-0.0516
AGACCCTG	-0.21
AACATGCA	-0.0478
CCTAGCTC	-0.114
TAATCGAA	0.152
GCGAAAAA	0.116
AGACGGCC	-0.0278
AAATGGGA	-0.142
CAAATTGG	0.0993
AGGGGTTA	-0.299
GCCTTCAC	-0.0689
AGACCTAC	-0.0784
CATCTAAG	-0.118
CACTTTGG	-0.0212
TCGATAAA	0.207
ACTACTAT	0.205

Sequence	PBM E-score
GTCACACA	0.0829
CTGTCAAA	0.11
ATAGGCAT	-0.194
CGTGGATC	0.201
GATGGCGC	-0.00326
GACTCGAA	-0.0594
TAATTCAA	0.198
ACGTAAGA	0.207
AATCAACA	0.224
CTTGAGCC	-0.29
GAGCTCTA	-0.103
CGCCTGGA	-0.0844
GCGAGTCC	-0.196
CTGTCGCC	-0.202
ATCGGGCC	-0.284
CCGTGCGA	0.354
CTGAAAGA	0.089
TCTAGACA	-0.0266
ACATCTAG	-0.069
CTTCATAC	0.235
ATCAACAC	0.223
AAGCAGAC	-0.202
AGTGGAAA	-0.124
GCCTTCGA	-0.206
GGCAATAC	0.0605

A second format for part of the listing above.
Sequence | PBM E-score
CCTTCCCA | -0.146
TAATCTAA | 0.0149
CCAGAAGC | -0.303
GCACACGC | -0.209
CTAATACA | 0.0732
CCATCAAA | -0.166
ACGTCAGA | 0.025
CGGTGAAG | 0.00725
GTATCATA | 0.259
ACCTTCAA | 0.0283
AATTTTAG | 0.134
AGTGCGGC | -0.0349
GGCCTATA | -0.251
CTACTCTC | -0.145
CCTTTCGC | 0.00468
CGTTGGTC | -0.154
CGGGTACA | -0.202
CACCGTAG | 0.0588
TCCAGCGA | -0.0303
AACAACTA | 0.0318
GCTAGCCA | -0.131
CACGACTA | 0.156
CTCTATGC | -0.194
CACGGGCC | 0.0145
CACAAACG | 0.0262
CGCGTATA | -0.0856
GTCCGAAC | -0.0605
CCTTTGGC | -0.128
CGAATTTC | 0.0635
CGGGATAA | 0.0608
AGTTCAGG | -0.0767
ATAGCATG | 0.0758
CCACAAGA | -0.0548
ATGTTGTC | 0.102
GAATTCTA | 0.162
AAGTAACC | -0.0803
CTATAAAA | 0.106
ATCGTATG | 0.302
ATGCGTCA | 0.174
CCTCATTC | -0.114
AACGTCAT | 0.217
AGTTAGGC | -0.0539
AGTCCCGA | -0.196
CTCGCTGC | 0.0747
GCGCCTCC | -0.225
CTAGCCGA | -0.209
GTCCAACA | 0.025
CTGGCACA | 0.00341
ACCTAAGG | -0.0147
ATGGGATG | -0.152
GTCATCAA | 0.31
AATAGCAC | -0.247
CAAATGAC | 0.144
TCTACAGA | -0.175
ATGAGCGA | 0.0981
ATTTAACC | -0.18
CCAAGAGA | -0.0641
CATCTGCG | -0.0622
CCGACAAG | -0.118
CCAGTGGA | 0.0179
CGTTTTGA | 0.182
TGGCACAA | -0.0301
TACCTAAA | -0.0501
CTGTGCGC | -0.0791
CCATTAAC | 0.127
AGACTCTC | -0.195
GAGTAATA | 0.18
ACATTACT | -0.0384
CGAGATTA | 0.215
CCGGTTGC | 0.13
CCTAATAG | 0.0821
GGTGTGAA | 0.144
CCAACCCG | -0.194
CAAGATGG | -0.203
GGTTTTAA | -0.0516
AGACCCTG | -0.21
GCGAAAAA | 0.116
AAATGGGA | -0.142
AGGGGTTA | -0.299
TCGATAAA | 0.207
CTGTCAAA | 0.11
ATAGGCAT | -0.194
CGTGGATC | 0.201
CTTGAGCC | -0.29
GAGCTCTA | -0.103
CGCCTGGA | -0.0844
GCGAGTCC | -0.196
ATCGGGCC | -0.284
ACATCTAG | -0.069
ATCAACAC | 0.223
AGTGGAAA | -0.124
GCCTTCGA | -0.206
GGCAATAC | 0.0605

The list continues:

Sequence	PBM E-score
CGAGACCG	-0.081
GATTTGCA	-0.0592
AACTCCTG	-0.177
AACCGATA	-0.00877
TATCTCAA	0.229
ACCATGGC	0.021
CTTATCCA	0.0016
CCATCCCG	-0.112
AAAAGATA	0.182
TCAACAGA	-0.063
CGCAGTGC	-0.191
AGCGAGAA	-0.0126
ACGTATCG	0.212
ACGGCTCA	0.226
ATACTAAC	0.0585
CAGAAGCA	-0.146
ACGTGCTC	-0.221
CACGTAGG	0.132
ACGTACTG	0.101
CCCGGGCG	-0.0645
CTTATTAC	0.174
ACCGTGCC	0.0366
CGGAATTC	0.00056
GATCACCC	0.261
CGTGCACC	-0.147

Sequence	PBM E-score
ACTGCTGG	-0.18
ACCTACTG	-0.119
CTGCGAGA	-0.281
ATGTATTC	-0.0287
ACACCTGC	-0.203
TCCTGTAA	-0.0524
ACAATTCA	0.00882
CTCGGCCA	-0.153
CTACCCAC	-0.106
AAAGTTTG	0.0446
ACGAGTAA	0.108
GCTCAGTA	-0.0985
CTTATAAC	0.0537
ATACAGCG	-0.0382
ACCTAGAA	0.118
ACCTTATA	0.0987
CCAAACGG	-0.0255
GACCCGAC	-0.236
TATCATGA	0.306
GCCTTCCA	-0.22
ATTTATAC	0.224
AATTGGCC	-0.17
GGGGAGAA	-0.231
CGCCCCCC	-0.317
AGCCGGAC	-0.0562

Sequence	PBM E-score
CGCAGGTA	0.034
CCGGTTAA	-0.0826
CGTTACTC	0.0875
CCAATGTA	0.0412
GCACGACC	0.0772
CAAGTGTC	0.036
AACCAGAG	-0.227
GTAAAGTA	0.0846
CCTTAAGA	-0.0198
GAACAGAA	-0.05
ATTCCCTC	-0.128
AAGCGGGT	-0.0268
ACCTCCTA	-0.0283
CAGAATCG	0.232
ATATAGAG	0.0248
GACGGCAC	0.048
GCAGGATA	-0.128
AGTTACAC	0.0537
CGACATAC	0.238
AGTTGGAT	0.0882
CTGGTGGC	-0.202
CGCTAGTA	-0.057
GATGTCGC	0.182
CTCATACC	0.102
GATTGGGA	-0.197

Sequence	PBM E-score
GCTCAAAC	-0.0332
GCGAGCAC	-0.131
AGTCGCAT	-0.0565
ATTATGAA	0.0891
AATCTCAG	-0.256
GCTTCACA	-0.144
ACTTCTTG	-0.0965
CGTTTTCA	0.0747
GTGTTCGA	0.0693
AAACGTCC	0.0834
CCGCCCCG	-0.0814
ATAAAATA	0.207
CGCTCACG	0.0027
AAGTAGAT	-0.0127
ACGATGCG	0.07
GCGGCTAC	-0.281
CGTCTACC	-0.05
ACTGCCTG	-0.124
ACGTGAAT	0.21
AACGTACG	0.222
GAACGGTA	0.153
AGGTGGAC	-0.123
GTTCCGCA	-0.149
CGTGAATC	0.201
GGTCCAGA	0.0155

Sequence	PBM E-score
ATCTTGAC	0.0128
AATTGGCA	0.0539
AGGGGTTC	-0.264
CCAGTACA	-0.0881
GAGGCAGA	-0.167
CAATTAAC	0.176
CCCGCCGG	-0.0977
ACGTAGTC	-0.025
CCGCGCAC	-0.209
AATCAAAA	-0.0563
AAATTAGT	0.173
AAAAGCCG	-0.222
ACGCAGCC	-0.118
CCAGTGCC	0.00571
AGCCGTAT	0.161
GACCGGCC	-0.229
ATTTTGCA	0.142
GCCGGCGA	-0.253
CCTATAAA	-0.134
CGGGAAAA	0.0915
AGCGGAAG	-0.121
AGAGATAT	0.0861
AATTTTCC	0.125
GAGTGCAC	-0.126
AGTGAAGA	0.129

Sequence	PBM E-score
GACAACAA	0.166
CAGATTAG	-0.103
AAAGAACA	0.0313
CTGTTGTA	-0.00395
TAACTTCA	0.115
GGGAGCCC	-0.302
AACATTTA	0.0911
AGCCATGA	0.104
ATCGCTCA	0.13
ATTCGATG	-0.0337
ATGACATA	0.401
CCGACCGG	-0.168
CGATGCAA	-0.201
ATTTGAGC	0.00156
ACAGCCCA	-0.108
CATAGGTA	-0.146
CAAGACGA	0.0998
CTGGCGGC	-0.212
ACGTTGAT	0.0436
